In PMC8913686 one finds binding data, which are given here for one substance.

By UniProt entry, the sequences of proteins in these tests, tags left out. Residues count along the entry.
UniProt Q04721, residues 26-2471: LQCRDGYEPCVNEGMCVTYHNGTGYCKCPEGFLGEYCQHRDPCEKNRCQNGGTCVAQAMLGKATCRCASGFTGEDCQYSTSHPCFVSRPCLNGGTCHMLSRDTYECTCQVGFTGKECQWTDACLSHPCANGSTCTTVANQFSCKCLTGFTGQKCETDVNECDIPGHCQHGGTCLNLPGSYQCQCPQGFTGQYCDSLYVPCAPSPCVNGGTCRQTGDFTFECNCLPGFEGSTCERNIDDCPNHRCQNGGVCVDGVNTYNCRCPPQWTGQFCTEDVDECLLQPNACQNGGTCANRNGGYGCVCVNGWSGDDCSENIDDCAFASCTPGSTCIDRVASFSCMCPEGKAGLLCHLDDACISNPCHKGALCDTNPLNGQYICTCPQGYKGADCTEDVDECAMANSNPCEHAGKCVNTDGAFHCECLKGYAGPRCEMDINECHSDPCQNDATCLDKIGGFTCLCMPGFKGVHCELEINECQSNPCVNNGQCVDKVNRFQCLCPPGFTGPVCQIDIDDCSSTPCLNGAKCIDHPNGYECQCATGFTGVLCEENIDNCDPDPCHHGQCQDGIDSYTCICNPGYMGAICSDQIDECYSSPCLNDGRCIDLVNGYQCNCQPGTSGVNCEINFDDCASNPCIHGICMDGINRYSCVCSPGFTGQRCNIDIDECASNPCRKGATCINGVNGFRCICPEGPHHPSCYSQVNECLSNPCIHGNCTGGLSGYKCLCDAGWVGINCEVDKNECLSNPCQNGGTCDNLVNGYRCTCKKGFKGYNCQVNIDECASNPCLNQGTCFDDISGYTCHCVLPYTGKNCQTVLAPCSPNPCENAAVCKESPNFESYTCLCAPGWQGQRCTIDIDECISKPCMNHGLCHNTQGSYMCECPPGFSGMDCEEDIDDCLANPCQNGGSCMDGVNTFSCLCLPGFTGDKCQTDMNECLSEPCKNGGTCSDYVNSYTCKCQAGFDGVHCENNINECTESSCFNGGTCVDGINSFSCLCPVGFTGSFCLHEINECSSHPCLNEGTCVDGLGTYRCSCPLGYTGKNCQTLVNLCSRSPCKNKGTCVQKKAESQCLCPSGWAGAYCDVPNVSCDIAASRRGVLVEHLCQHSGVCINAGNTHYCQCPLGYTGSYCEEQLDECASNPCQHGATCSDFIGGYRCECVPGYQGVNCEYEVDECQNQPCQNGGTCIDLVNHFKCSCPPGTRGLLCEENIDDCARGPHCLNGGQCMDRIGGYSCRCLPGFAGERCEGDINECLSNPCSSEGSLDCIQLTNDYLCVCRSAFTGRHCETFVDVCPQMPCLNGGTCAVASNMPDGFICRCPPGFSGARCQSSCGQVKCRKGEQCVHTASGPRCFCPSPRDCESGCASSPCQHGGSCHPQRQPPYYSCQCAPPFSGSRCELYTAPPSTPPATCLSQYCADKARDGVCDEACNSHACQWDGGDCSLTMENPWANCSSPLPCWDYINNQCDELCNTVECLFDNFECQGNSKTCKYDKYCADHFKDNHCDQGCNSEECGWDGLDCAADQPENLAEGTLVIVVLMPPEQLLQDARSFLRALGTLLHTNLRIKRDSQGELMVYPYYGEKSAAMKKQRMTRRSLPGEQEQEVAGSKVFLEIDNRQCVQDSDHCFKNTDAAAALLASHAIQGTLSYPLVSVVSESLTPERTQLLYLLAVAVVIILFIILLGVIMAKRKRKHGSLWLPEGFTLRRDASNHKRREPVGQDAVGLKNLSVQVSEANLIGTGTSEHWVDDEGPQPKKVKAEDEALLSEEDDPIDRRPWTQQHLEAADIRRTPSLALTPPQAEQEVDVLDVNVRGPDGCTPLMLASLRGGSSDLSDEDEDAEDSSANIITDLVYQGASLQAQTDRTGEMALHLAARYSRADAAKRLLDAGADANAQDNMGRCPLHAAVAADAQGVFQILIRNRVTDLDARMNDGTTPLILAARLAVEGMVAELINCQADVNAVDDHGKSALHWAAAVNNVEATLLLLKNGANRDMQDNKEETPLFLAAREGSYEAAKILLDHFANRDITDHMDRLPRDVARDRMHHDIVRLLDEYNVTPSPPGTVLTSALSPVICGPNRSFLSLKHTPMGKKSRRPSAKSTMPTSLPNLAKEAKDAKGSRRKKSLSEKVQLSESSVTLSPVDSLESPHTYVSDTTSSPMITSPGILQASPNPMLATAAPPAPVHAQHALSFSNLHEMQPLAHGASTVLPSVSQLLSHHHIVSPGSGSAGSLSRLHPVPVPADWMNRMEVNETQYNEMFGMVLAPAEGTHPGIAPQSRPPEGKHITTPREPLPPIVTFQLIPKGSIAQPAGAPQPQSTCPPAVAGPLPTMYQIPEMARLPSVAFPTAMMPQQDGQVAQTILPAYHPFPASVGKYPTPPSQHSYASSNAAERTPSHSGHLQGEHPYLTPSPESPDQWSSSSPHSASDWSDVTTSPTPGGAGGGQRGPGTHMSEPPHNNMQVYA

Results are given in words; binding and its absence hold for the method and conditions named. Binding seen in cells or lysates may run through a third protein. A yes stands for co-enrichment or nearness to the bait. Other partners may have been found. Tags and fused reporters may be left off the sequences shown.

In this experiment the target is T1, Flag-tagged Kir2.1 (inwardly-rectifying potassium channel J2) (human) (UniProt P63252).
T1 sequence: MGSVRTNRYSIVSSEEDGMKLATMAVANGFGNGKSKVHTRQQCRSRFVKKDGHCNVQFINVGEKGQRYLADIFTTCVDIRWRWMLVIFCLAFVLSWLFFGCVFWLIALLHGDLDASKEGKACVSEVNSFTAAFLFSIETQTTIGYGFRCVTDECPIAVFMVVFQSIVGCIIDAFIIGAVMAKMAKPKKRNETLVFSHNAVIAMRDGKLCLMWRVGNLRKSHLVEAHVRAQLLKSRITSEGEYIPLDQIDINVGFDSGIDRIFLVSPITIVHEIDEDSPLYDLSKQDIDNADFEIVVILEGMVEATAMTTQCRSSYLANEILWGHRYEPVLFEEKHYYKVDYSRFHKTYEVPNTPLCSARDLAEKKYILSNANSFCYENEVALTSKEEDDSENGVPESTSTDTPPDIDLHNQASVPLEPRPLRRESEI
Nature of the experiment: affinity purification with mass spectrometry; 10 ug anti-Flag antibody (IgG as control) immobilised on AminoLink Plus coupling resin; 250 ug MB cell lysate, 4 °C overnight; eluate analysed by mass spectrometry.

As to “Notch2-full length (from UniProt Q04721 26-2471) (receptor)”, the binding entry was “binds”.
